# The other results are listed elsewhere or left out. Entries with a potency or affinity are not part of this list. Where no call is shown, the source marks the result inconclusive.
# Test: dose response, H37Rv, with and without meropenem (AID 434987)
# Conditions: M. tuberculosis H37Rv growth inhibition with meropenem; at 100 µM (top of the series) unless noted
row,SMILES,growth inhibition
1,N#Cc1cc(Oc2cccc3cccnc23)c(-n2nnc3ccccc32)cc1C#N,68.3%
2,Cc1ccc(C(=O)c2sc3c(c2N)c(=O)[nH]c(=O)n3CCc2ccccc2)cc1,42.5%
3,c1cn(CCCNC2CCCCCCC2)cn1,7.66%
4,Cc1ccc(S(=O)(=O)n2cc(-c3ccccc3)c(N)n2)cc1,50.8% [at 12.5 µM]
5,Cc1cc(C)c(O)c(-c2cc(C(=O)NCc3ccccc3)[nH]n2)c1,37.4%
6,CCc1cccc2c(C(=O)COC(=O)/C=C/c3ccc(O)c(OC)c3)c[nH]c12,75.7%
7,Cc1cc(SCC(=O)c2ccccc2)n2ncc(-c3ccccc3)c2n1,7.48%
8,CCN1C(=O)C(O)(CC(=O)c2ccc(-n3cccc3)cc2)c2ccccc21 (stereo unspecified),-14%
9,CCN(CC)c1ccc(S(=O)(=O)N2CCOCC2)cc1NC(=O)CSc1cccc[n+]1[O-],63.6%
10,Cc1cc(NC(=O)CCS(=O)(=O)c2nc(-c3ccccc3)cc(C(F)(F)F)n2)no1,1.54%
11,Cc1cc(Cl)ccc1OC(C)C(=O)NCCCCc1ccccc1 (stereo unspecified),52.5%

# From PubChem BioAssay AID434987 (Southern Research Specialized Biocontainment Screening …, 2010)
